Results are given in words; binding and its absence hold for the method and conditions named. In cells and extracts the contact can be indirect. A yes stands for co-enrichment or nearness to the bait. Other partners may have been found. No binding means not detected with the bait. Tags and fused reporters may be left off the sequences shown.
B1: Ubiquilin (protein, UniProt Q9VWD9 1-547)
chain: MAEGGSKRINVVVKTPKDKKTVEVDEDSGIKDFKILVAQKFEAEPEQLVLIFAGKIMKDTDTLQMHNIKDNLTVHLVIKAPTRNNEQPARQPADVRQTPFGLNQFGGLAGMEALGAGSNTFMDLQARMQNELLNNGDMLRSLMDNPMVQQMMNNPDTMRQLITSNPQMHDLMQRNPEISHMLNNPDLLRQTMELARNPSMLQELMRSHDRAMSNLESVPGGYSALQRIYRDIQEPMMNAATESFGRNPFAGLVDGGGSGAGNNPQQGTENRNPLPNPWGGANSGTNGTVGGSGAGNPTGDLPPNNVLNTPAMRSLLQQMADNPAMMQNLLNAPYTRSMMESMSQDPDMAARLLSSSPLMSNNPALQEQVRQMMPQFMAQMQNPEVMNMLTNPDAMNAILQIQQGMEQLRSAAPGLVGTLGIPPPPPGAGTGTNPASGDGSGGNSGASTNNVSPSSGLNAGTGTPNLAPGGGPNAQLFNDFMMRMLNGMSNNADNTQPPEVRYQSQLEQLNAMGFVNRDANLQALIATFGDINAAVERLLSLNQLSLS
B2: HP1b (protein, UniProt Q9W396 1-240)
chain: MAEFSVERVEDKRTVNGRTEYYLKWKGYPRSENTWEPVENLDCPDLIANFEESLKNNKKETKKRLSTSSTPESIRSKRKSFLEDDTEEQKKLIGFERGLEASKILGATDSSGHLMFLMKWKGSDHADLVPAKLANTRCPQVVIQFYEERLTWHTGSGNGNGNTNSVNLGSSGGLGSVGGSGAGDDTAPGSVGTTGGGSNIDGGDEEDPEPASPIGSINQDENIKPDESSELDNGQPDADD
B3: ACF1 (protein, UniProt Q9V9T4 1-1476)
chain: MPICKREGFDLNQKEGKNETFHDNDQVFCCYITKRIFRDYEHYFRHVMVINSTVWQCEATGKENLTYEEAVKSERAARKKMEQFKQSLRAPVLLVVEHAQQSAVNTLNMIVAKFLRKRYFIGEEVSVQAKKNATYTVLGVKLDKNMPEPLNGIYEDTDNLVYRLRPNKGDPSAELDLPFRQLRRSRMEFNLENLSMFIKSNVSRVDGLLRPKPEAYKQYVTDPGVNFSTIFIGKMPRYSPAKIKKPDGKKQSTLNKYIVAGEATAAKSKAKAKSDAKSLAEELERVKREKEAKLIELEKQKAEKKAQLIERVENECNLLLQKTDDLERTDQKVLPRYRQIVTLLPEHLLGDAFMMREFMHTYTGLLSGIEVFRQNLSFYEMTRALTAREIAGPLSDILLVLLGTVFDLQKEEEEECAVTYLDRAAQTQEPYWSMAQAAKSHLYAKRHFSFKVNELPLDALTLSEVLRLHLLGSGAFVNEKAERWRVMYRNGYSSKEDPGLELRLEHSHILRILKNHSVYQLKFKDIMLLIRCLMSQIMTYSGTINLIEERMEQTAKARQDLRALVVGENKRLAAVEINRKKLTQMHHLEVNGVEPEKREALVEKLKKSIAELHAQSDQQHRKHELQMLKLHSQLFNFLVYLGMDRCYRKYYVLESMPGIFVEHSPDSLDTCLEQPITNKSQIEIRQQSALPKNRKDLRVYLLKLYGDDEKKTKKKAKHSLENKENQEHRLNGSAEPMDVESDSPEAPTHFELLMCSGDKRSCIVHDSRNGQRQRWAYIYKAEEIDELIKALNPNGLREYELLQELSVLRSLIEQHAKTCPVDLLSLENETMRKKFMAAMESETNRKYGEANFGLPNGTDLNEVMRLHLVDRIIQFENDIYTGDLGRLKVKDMEKWRSDLLGGNYDAQCKLQWGPGGKLEDEAGSDNESHETHEEDDGALLGKYARKPYRDPGMYLAASADTKPLPDSDDEEDQHTNAVSIPIAVHNMASALLQVEQAIGKRFLKEPYGMKKWDPKQEALKLACDSRLHQWEVSLMESTSFAQVFLHLNILHDCIQWRRSTNKSLCKVCRRGSDPEKMLLCDECNAGTHMFCLKPKLRSVPPGNWYCNDCVKSLGLSNGQNEKDKKQATKKKRKFIVEEEDDEATDEEEEEKKDDDMTDEDAEHENEKHDEDVEDDESVTSTPSSSRVNGRILRRPRTRPTSRRLTSKEIEEHAQEDVDSGDVSDDASLTAGEDTIEDESDEEKVCQKCFYDGGEIKCVQCRLFFHLECVHLKRPPRTDFVCKTCKPMPQRPRRRHSNMNGDHDRDEEEPKAKRPRNSLRLSIDKTARPSNGNNNNNNNNSSVNNNNHRRSGRRTNEHMPLNSAALYDLLEQIMKHKAAWPFLRPVLTSEVPDYHQIIKTPMDLAKIKSKLNMGAYQLNEELLSDIQLVFRNCDLYNVEGNEIYDAGCQLERFVIDRCRDMQLPFRPSDMNGEVKAC

What follows are binders tested against T1, FLAG tagged HP1c (Drosophila) (UniProt Q9VCU6) (assay: affinity purification with mass spectrometry; nuclear extract of SL2 cells stably expressing HP1cFLAG on M2 anti-FLAG agarose, 2 hours at 4°C, washed with CB300, eluted with FLAG-peptide, SDS-PAGE, GeLC MS/MS and LC MS/MS; non-transfected cells as control).
T1 sequence: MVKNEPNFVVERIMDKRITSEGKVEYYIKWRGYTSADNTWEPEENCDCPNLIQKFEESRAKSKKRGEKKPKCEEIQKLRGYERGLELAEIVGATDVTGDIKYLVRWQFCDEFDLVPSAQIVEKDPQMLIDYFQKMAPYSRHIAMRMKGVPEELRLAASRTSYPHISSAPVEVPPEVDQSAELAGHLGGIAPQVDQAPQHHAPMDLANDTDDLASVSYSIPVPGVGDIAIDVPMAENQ
B1 was tested, and the binding was “binds”. With B2 the binding was “binds”. With B3 the binding was “no binding”.
